In PMC10286715 one finds binding data, which are given here for 2 substances.

Sequences of proteins named here, by UniProt entry; tags and fusion partners are left off. Residues count along the entry.
UniProt P02769, residues 25-607: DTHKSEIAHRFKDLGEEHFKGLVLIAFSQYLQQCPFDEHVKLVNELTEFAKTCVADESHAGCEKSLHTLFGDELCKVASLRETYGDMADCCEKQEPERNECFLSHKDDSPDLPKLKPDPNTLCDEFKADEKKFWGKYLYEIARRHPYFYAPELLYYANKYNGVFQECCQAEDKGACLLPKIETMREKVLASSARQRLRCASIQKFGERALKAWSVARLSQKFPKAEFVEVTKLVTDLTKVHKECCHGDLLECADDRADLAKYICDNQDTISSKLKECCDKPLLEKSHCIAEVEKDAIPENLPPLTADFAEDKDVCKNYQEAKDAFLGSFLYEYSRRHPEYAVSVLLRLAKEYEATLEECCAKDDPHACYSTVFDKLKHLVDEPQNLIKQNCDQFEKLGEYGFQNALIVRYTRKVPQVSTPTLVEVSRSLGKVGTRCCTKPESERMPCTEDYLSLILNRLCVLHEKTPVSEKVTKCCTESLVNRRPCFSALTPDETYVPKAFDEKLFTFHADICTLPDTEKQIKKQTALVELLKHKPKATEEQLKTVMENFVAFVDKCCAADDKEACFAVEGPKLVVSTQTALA
UniProt A0ABN4DRJ1: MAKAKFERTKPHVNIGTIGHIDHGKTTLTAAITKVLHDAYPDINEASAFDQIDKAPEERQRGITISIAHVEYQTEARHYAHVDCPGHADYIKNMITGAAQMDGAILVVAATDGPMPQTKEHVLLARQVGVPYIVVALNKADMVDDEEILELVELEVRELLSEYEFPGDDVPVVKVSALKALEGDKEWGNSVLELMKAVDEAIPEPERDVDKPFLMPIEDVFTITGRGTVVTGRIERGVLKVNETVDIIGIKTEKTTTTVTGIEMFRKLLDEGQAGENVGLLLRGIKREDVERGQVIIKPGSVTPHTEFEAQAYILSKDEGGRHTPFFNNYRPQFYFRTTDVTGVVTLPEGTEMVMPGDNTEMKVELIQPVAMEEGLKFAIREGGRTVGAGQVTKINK
UniProt A0ABM5R182: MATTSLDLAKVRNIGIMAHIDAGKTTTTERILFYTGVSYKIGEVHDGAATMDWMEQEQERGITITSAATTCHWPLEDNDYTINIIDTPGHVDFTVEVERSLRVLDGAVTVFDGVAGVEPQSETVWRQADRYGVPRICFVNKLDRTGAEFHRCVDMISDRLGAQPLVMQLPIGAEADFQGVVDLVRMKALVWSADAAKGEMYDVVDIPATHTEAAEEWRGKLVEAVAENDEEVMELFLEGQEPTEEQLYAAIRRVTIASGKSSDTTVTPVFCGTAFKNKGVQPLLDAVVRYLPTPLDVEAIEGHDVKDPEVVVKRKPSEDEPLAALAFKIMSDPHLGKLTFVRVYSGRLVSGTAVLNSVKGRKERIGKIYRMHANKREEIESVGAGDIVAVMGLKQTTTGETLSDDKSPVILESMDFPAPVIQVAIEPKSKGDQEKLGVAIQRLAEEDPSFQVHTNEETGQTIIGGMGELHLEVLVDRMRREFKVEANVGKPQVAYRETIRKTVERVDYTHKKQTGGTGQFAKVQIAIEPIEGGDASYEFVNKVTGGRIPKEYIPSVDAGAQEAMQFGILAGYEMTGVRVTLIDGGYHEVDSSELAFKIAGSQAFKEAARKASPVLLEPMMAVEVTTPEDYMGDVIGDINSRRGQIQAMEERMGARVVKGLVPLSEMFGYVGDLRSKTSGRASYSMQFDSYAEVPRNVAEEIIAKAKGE

Results are given in words; binding and its absence hold for the method and conditions named. Binding seen in cells or lysates may run through a third protein.

The assay deals with bovine serum albumin labeled with sulfo-SBED (bovine) (UniProt P02769). Description: cross-linking; sulfo-SBED-labeled purified bait mixed with S. lividans TK23 lysate, room temperature 5 min, UV 365 nm; S-S bond cleaved with 100 mM 2-mercaptoethanol; biotin-labeled prey captured on a streptavidin column, eluted with 0.1 M glycine pH 2.5; SDS-PAGE (CBB), streptavidin-HRP blot, MALDI-TOF peptide mass fingerprinting; only the target purified.

Take “elongation factor Tu1 (from UniProt A0ABN4DRJ1 1-397)”: the binding entry is given as “no binding”.

For “elongation factor G1 (from UniProt A0ABM5R182 1-708)”, the binding entry is given as “no binding”.
